Literature values as cited in patent US20060029684A1, “Synergistic treatment of DNA viral infections” (Henderson Morley Research and Development Limited, priority 1999, published 2006).

Tested on: plasma proteins, mainly albumin
Conditions: cited from earlier work

In the case of `NS(=O)(=O)c1cc(C(=O)O)c(NCc2ccco2)cc1Cl` [Frusemide, 4-chloro-N-furfuryl-5-sulfamoylanthranilic acid], the “bound to plasma proteins” value (plasma concentrations 1 to 400 mcg/ml, healthy individuals) is given as 91-99% and the unbound fraction (therapeutic concentrations) is given as 2.3-4.1%.
